Our source for the binding values is article PMC3407074.

Sequences of proteins named here, by UniProt entry; tags and fusion partners are left off. Residues count along the entry.
UniProt Q8I1Y0, residues 21-378: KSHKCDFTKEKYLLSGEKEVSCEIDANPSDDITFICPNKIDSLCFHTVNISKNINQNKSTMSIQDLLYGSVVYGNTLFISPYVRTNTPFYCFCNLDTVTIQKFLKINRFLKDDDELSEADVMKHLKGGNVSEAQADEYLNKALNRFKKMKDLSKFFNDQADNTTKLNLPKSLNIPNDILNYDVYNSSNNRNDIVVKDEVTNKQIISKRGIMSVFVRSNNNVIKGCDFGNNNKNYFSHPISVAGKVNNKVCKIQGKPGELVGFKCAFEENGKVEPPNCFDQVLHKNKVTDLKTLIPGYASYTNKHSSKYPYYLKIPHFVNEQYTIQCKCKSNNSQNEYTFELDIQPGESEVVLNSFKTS

Results are given in words; binding and its absence hold for the method and conditions named. In cells and extracts the contact can be indirect. Some entries that bind do so weakly or less than the wild type.

For test [1], the target named is T1, native P12 (Plasmodium falciparum (endogenous in 3D7 and CS2 parasites)) (UniProt C6KSX0).
T1 sequence: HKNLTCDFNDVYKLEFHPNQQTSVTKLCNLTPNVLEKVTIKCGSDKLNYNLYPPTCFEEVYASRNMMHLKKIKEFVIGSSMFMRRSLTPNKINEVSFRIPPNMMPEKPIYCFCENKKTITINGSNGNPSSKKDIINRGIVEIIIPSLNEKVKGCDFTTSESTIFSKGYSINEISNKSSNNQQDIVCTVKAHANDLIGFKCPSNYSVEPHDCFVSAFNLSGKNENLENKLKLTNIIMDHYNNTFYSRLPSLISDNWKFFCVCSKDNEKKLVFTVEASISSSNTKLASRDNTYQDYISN
Briefly: co-IP; parasite lysate in 1% Triton X-100 in PBS, pre-immune, anti-P12 or anti-P41 rabbit IgG on Protein G agarose, overnight at 4°C; eluted with 0.1 M glycine pH 2.8; western blot.

The target in test [2] is T1, native P12 (Plasmodium falciparum (endogenous in 3D7 and CS2 parasites)). Briefly: cross-linking; magnet-purified schizonts (CS2 and CS2 Δp41) crosslinked with DSP (0-500 µM) in PBS, 30 minutes at room temperature; non-reducing SDS-PAGE and western blot with anti-P12 or anti-P41. On the technique in general: In western blotting, separated proteins are transferred to a membrane and probed.

Test [3] has as its target native P41 (Plasmodium falciparum (endogenous in 3D7 and CS2 parasites)) (UniProt Q8I1Y0). In words: co-IP; parasite lysate in 1% Triton X-100 in PBS, pre-immune, anti-P12 or anti-P41 rabbit IgG on Protein G agarose, overnight at 4°C; eluted with 0.1 M glycine pH 2.8; western blot.

In the case of native P41 (from UniProt Q8I1Y0 21-378), the binding result in test [1] and in test [2] was “binds” throughout.

B1: native P12 (protein, UniProt C6KSX0 26-322)
chain: T1 sequence
For the molecule B1, the binding entry is “binds” in test [3] and “no binding” in test [2].
